Source: US20240092844

Columns and labels:
Experiment in all cases: activity in cells
[1] = test system: T1, FOXR2-Tet3 RTF (Homo sapiens); conditions: activates as well or better than rTetR-VP64; protein in cells; protein details: forkhead DBD replaced by ZF array; only the site is given
T1 sequence: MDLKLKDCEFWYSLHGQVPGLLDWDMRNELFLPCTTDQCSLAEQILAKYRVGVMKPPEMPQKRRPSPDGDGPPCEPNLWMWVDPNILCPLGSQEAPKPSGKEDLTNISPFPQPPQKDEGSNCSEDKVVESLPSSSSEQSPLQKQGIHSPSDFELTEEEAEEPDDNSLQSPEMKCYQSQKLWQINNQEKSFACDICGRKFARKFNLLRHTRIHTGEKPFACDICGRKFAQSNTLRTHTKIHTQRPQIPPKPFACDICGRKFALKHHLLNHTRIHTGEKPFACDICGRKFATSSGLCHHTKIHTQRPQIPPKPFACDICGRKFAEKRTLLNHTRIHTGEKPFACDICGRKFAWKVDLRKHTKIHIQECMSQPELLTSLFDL

[2] = test system: T2, KLF6-Tet3 RTF (Homo sapiens); conditions: GFP reporter activation in HEK293T as well or better than rTetR-VP64; protein in cells; only the site is given
T2 sequence: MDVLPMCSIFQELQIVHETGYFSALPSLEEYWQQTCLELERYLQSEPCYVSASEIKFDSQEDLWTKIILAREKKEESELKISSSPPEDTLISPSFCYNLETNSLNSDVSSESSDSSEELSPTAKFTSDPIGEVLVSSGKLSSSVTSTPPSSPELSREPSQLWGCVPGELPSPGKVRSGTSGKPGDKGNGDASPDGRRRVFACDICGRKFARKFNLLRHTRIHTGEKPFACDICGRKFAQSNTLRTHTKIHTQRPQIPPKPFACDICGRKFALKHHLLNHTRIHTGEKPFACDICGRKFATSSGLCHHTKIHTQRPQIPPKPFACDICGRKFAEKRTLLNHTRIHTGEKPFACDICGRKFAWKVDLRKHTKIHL

[3] = test system: T3, KLF7-Tet3 RTF (Homo sapiens); conditions: activates as well or better than rTetR-VP64; protein in cells; only the site is given
T3 sequence: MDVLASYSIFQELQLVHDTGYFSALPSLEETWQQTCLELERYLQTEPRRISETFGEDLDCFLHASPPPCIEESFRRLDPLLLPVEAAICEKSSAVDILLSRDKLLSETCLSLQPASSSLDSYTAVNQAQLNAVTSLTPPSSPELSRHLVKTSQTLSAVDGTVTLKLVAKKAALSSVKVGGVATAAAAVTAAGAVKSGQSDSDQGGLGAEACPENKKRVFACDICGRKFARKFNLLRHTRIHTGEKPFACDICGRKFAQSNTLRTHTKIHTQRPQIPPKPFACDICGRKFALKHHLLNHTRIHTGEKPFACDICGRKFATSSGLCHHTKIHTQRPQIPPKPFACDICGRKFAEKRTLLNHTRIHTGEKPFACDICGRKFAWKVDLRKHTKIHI

[4] = test system: T4, ZNF324-Tet3 RTF (Homo sapiens); conditions: repression similar to ZIM3-Tet3; protein in cells; only the site is given
T4 sequence: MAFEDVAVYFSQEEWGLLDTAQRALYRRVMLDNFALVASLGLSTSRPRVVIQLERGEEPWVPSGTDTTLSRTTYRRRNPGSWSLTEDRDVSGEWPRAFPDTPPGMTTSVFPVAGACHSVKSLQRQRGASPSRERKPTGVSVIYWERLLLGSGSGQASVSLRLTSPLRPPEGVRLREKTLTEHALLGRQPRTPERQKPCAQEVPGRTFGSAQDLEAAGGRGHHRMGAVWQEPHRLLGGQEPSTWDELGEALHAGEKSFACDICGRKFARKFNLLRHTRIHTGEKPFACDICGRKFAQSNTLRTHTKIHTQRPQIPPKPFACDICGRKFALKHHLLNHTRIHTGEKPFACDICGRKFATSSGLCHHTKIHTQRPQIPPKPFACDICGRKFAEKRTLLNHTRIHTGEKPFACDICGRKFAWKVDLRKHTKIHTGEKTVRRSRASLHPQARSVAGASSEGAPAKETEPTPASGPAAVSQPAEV

[5] = test system: T5, ZXDC-Tet3 RTF (Homo sapiens); conditions: activates as well or better than rTetR-VP64; protein in cells; only the site is given
T5 sequence: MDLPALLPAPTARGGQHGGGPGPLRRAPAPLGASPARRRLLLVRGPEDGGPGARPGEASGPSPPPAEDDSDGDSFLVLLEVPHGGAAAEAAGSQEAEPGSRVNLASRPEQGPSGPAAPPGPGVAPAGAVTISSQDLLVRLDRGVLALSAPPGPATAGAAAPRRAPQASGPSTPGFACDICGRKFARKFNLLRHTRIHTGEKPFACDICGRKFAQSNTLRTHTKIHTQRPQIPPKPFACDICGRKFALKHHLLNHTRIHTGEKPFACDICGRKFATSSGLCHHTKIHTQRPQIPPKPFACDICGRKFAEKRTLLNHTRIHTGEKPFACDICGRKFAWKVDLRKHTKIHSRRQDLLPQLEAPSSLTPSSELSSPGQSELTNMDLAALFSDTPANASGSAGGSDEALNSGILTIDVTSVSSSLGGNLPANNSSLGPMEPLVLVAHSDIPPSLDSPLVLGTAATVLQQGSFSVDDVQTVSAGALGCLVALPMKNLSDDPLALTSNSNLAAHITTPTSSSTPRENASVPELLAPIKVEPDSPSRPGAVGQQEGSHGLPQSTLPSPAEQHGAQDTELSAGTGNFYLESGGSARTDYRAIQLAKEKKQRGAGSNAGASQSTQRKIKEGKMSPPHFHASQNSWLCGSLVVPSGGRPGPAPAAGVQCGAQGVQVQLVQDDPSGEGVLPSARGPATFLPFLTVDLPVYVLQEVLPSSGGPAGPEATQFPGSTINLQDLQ

Measured: activity on this sequence

TCTCCCTATCAGTGATAGAGA (double strand) [Tet3 rev target]
active: all assays above

Tags and fusion partners may be left off the protein sequences shown.
